The list shows a part of the results.
What follows are sequences tested against T1, OsSMF1 (Oryza sativa, UniProt Q6ZLB0 1-436) (assay: protein-binding microarray (RPBM); PBS, 2% BSA, 51.3 ng/ul salmon testes DNA, 50 uM zinc acetate, 200 nM TF, 25 C, 1 h; high values mean tight binding). Details: protein: recombinant; tags: N-terminal polyhistidine and DsRed monomer fusion (pET32a); chain copies: 2; label: CyDye5-dUTP incorporated in the synthesized complementary strand; 3' TTTTT single-stranded linker to array surface; dsDNA, one strand shown.
T1 sequence: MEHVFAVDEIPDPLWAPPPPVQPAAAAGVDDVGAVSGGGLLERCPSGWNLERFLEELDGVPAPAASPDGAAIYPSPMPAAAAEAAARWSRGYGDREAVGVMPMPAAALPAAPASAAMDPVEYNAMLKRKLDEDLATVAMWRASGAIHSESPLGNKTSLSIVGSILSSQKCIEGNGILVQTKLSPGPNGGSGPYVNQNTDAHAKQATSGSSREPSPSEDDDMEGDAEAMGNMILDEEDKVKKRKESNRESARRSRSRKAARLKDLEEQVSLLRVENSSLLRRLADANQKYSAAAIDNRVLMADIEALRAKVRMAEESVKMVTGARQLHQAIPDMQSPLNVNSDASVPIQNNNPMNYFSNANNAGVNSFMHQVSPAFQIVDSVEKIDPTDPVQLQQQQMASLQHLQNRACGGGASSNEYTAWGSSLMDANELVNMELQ
Summary of the method: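 Binding signal is defined as the fluorescence intensity of each feature in arbitrary units, read on an Axon 4000B scanner. Transcription factors with N-terminal polyhistidine and DsRed fusions came from E. coli BL21-CodonPlus and were purified on Ni–NTA. They were incubated at 200 nM for 1 h at 25 °C on a custom Agilent array that had been made double-stranded with Cy5-dUTP, with 50 µM zinc acetate present, and the array was washed.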

Sequence	binding signal
GTGGTGGTCATCAACTCGTGCATTGCCACCCAGATCTCCACGGAGTCACCTAGTGCAG	4220 fluorescence intensity (a.u.)
ACGAGGGATGTCCTCTCCCCTCTGTCATCTAGCGCCCGCGCGGAGTCACCTAGTGCAG	3150 fluorescence intensity (a.u.)
TGACCGCAGACGTGGCATGCCACACAAGCACCAATTTTGCCGGAGTCACCTAGTGCAG	8620 fluorescence intensity (a.u.)
GACACGTATGATTTGTGTGGTAGTACATAGCACGCACGCACGGAGTCACCTAGTGCAG	35800 fluorescence intensity (a.u.)
AACTGGAACCCTTAGCCACTGTGAGGTGTACATCTGACAACGGAGTCACCTAGTGCAG	4990 fluorescence intensity (a.u.)
GCCACCGCTGCATCATCCCGCCTGTCTGCCTGCGCGCGCCCGGAGTCACCTAGTGCAG	3430 fluorescence intensity (a.u.)
GCACTAGCTAGTTAGATCATAAGGACGACAGAATGTTTGCCGGAGTCACCTAGTGCAG	38600 fluorescence intensity (a.u.)
GTGCTCTCAATGCTACATCACGAACACACTGTATGTAGTGCGGAGTCACCTAGTGCAG	3170 fluorescence intensity (a.u.)
GAATCGACGAGCGCTCCCCTCCCCACGTCGCCCTCCCCGACGGAGTCACCTAGTGCAG	3210 fluorescence intensity (a.u.)
ACTTCTACGGTTCTTACTACGTGTAATTAAGTGGCTGACACGGAGTCACCTAGTGCAG	3370 fluorescence intensity (a.u.)
GGGACACCTCACCATCATCAGCTTGAGAAATAGGATAGGGCGGAGTCACCTAGTGCAG	3930 fluorescence intensity (a.u.)
CCACCGACCCCACCGTCCACCCACGCGTCCGCGTCCCGCACGGAGTCACCTAGTGCAG	3680 fluorescence intensity (a.u.)
GCAAAGGGTCCTCTCCTTGCCAAAATTGGTAGACTTTCATCGGAGTCACCTAGTGCAG	3600 fluorescence intensity (a.u.)
CGCGCAGGAGGAGTCGGATGCGGATGACGACGAACGAAAACGGAGTCACCTAGTGCAG	3570 fluorescence intensity (a.u.)
GTGGAGCATGACTCCACTCATCAGGGTTTAAATTCTGGTACGGAGTCACCTAGTGCAG	3740 fluorescence intensity (a.u.)
CATTGCCAGCGCCCAGTGGGCCACATCACGTGTGTGGGTTCGGAGTCACCTAGTGCAG	8480 fluorescence intensity (a.u.)
CAGAGGATCCGCGTCCGCTCATCTGTCATCTCGTTCTTCTCGGAGTCACCTAGTGCAG	3760 fluorescence intensity (a.u.)
CTCGTCTTGTGCCGTTAGCCCGTTGCGCGTGCGTGCGTGGCGGAGTCACCTAGTGCAG	6440 fluorescence intensity (a.u.)
GAAATACGCACATGGGGTGGGCGTGCTTCTACCATGCCTCCGGAGTCACCTAGTGCAG	3280 fluorescence intensity (a.u.)
TTTCAAACCATTGGCAGGCTTCCACGCATGCATGTCTCTCCGGAGTCACCTAGTGCAG	5830 fluorescence intensity (a.u.)
GATAGTAAAATTATTCCTACGTGAGTATGTATTTACCTTGCGGAGTCACCTAGTGCAG	3470 fluorescence intensity (a.u.)

Sequence	binding signal
AAACCGTCGTGCCAGACTCTTTTGATGACGTGCGGAGCATCGGAGTCACCTAGTGCAG	3820 fluorescence intensity (a.u.)
AACTCCTCTGCGGCCGCCACGTGTGAGCGCCGCCATCATCCGGAGTCACCTAGTGCAG	7630 fluorescence intensity (a.u.)
GAGCCGTCCAGCTGCCGCGGCCCTCCTCCACCACCGTCCCCGGAGTCACCTAGTGCAG	3240 fluorescence intensity (a.u.)
GCACCTACCTACACCTCCCTGCCGACCAACAACCCTGAGCCGGAGTCACCTAGTGCAG	28300 fluorescence intensity (a.u.)
TCTTGCCTTCTTGCCCTCCACACTGTCCACGTCTCTCCAACGGAGTCACCTAGTGCAG	4650 fluorescence intensity (a.u.)
TGTTTGTAAAGTAGAGCGTGCATGTGTGCGTTCTTAAGGTCGGAGTCACCTAGTGCAG	3590 fluorescence intensity (a.u.)
CGTCACGCCCGATTGCCATCCCTACCACCCATACACAATTCGGAGTCACCTAGTGCAG	3690 fluorescence intensity (a.u.)
TCTCACTCTACCACTTGTCTACTCCGCAGCCCAATAACCACGGAGTCACCTAGTGCAG	3170 fluorescence intensity (a.u.)
AGGATGTGTCAAACGTGAGTTGCCAGTTCACCGCCGCCGACGGAGTCACCTAGTGCAG	3520 fluorescence intensity (a.u.)
GCAGACGGCGCGGTCGACCCACCGTCTGCCACGTCAGCTTCGGAGTCACCTAGTGCAG	37200 fluorescence intensity (a.u.)
TCCACGTCACCCCATTCTGTCTCCATCATTCGATCTCAATCGGAGTCACCTAGTGCAG	10300 fluorescence intensity (a.u.)
CGTTGGCCACATCCGCCCTCCCCTATCAGTGATGTGGAACCGGAGTCACCTAGTGCAG	5950 fluorescence intensity (a.u.)
TTATGAAGGAAATGTCCGCGTACGCGTGGGCATGCCACGTCGGAGTCACCTAGTGCAG	6700 fluorescence intensity (a.u.)
TTGTCACGGGTTTTGGTTAGTCATATTTGATTACTCGTAACGGAGTCACCTAGTGCAG	4030 fluorescence intensity (a.u.)
CACTATTTTAGCTTATGTGACACCTATGAGACTATGCTTTCGGAGTCACCTAGTGCAG	3430 fluorescence intensity (a.u.)
GCCAACACGCAAGGAAAATGACTTGGCCACAGCCACACACCGGAGTCACCTAGTGCAG	4220 fluorescence intensity (a.u.)
GGCGACGAACATGTCCTGGTGGTTGTTGTCACGTCATGTCCGGAGTCACCTAGTGCAG	6070 fluorescence intensity (a.u.)
CATATAACTTATGTTACATATTTTAATTATTGCTCTAGGTCGGAGTCACCTAGTGCAG	3520 fluorescence intensity (a.u.)
TCCGTTTCGTATTGTAAAACTTTCTAGTATTGCCCACATTCGGAGTCACCTAGTGCAG	19300 fluorescence intensity (a.u.)
CATGGCCACGTCCGCCACCTTGCGGATGCCGGAGGGTAAGCGGAGTCACCTAGTGCAG	41400 fluorescence intensity (a.u.)
GCATTGTATAAATAACTATAATCGTTATCATGATAACATTCGGAGTCACCTAGTGCAG	32800 fluorescence intensity (a.u.)

Retrieved one by one from above, 2 records:
Sequence	binding signal
GACACGTATGATTTGTGTGGTAGTACATAGCACGCACGCACGGAGTCACCTAGTGCAG	35800 fluorescence intensity (a.u.)
ACGAGGGATGTCCTCTCCCCTCTGTCATCTAGCGCCCGCGCGGAGTCACCTAGTGCAG	3150 fluorescence intensity (a.u.)
